Where two headings read alike, the source gives them in different places.

This data set deals with oligodendrocytes. The conditions noted are these: 48 hours.

`Nc1nc2ccc(OC(F)(F)F)cc2s1` [Riluzole, 2-amino-6-trifluoromethoxy-benzothiazole]: the “Toxic effect on the survival of the oligodendrocytes” value reads like this: (riluzole alone at the dose of about 10 mM) “slightly toxic effect”; (riluzole alone at the doses of 0.01 mM to 10 mM) “no toxic effect”.

These data come from patent US20020037902A1 (priority 2000, published 2002).
